Data reported in PMC7788524.

Protein sequences, listed by entry. Tags and fused reporters are not part of them. Residues count along the entry.
UniProt P06213, residues 28-1382: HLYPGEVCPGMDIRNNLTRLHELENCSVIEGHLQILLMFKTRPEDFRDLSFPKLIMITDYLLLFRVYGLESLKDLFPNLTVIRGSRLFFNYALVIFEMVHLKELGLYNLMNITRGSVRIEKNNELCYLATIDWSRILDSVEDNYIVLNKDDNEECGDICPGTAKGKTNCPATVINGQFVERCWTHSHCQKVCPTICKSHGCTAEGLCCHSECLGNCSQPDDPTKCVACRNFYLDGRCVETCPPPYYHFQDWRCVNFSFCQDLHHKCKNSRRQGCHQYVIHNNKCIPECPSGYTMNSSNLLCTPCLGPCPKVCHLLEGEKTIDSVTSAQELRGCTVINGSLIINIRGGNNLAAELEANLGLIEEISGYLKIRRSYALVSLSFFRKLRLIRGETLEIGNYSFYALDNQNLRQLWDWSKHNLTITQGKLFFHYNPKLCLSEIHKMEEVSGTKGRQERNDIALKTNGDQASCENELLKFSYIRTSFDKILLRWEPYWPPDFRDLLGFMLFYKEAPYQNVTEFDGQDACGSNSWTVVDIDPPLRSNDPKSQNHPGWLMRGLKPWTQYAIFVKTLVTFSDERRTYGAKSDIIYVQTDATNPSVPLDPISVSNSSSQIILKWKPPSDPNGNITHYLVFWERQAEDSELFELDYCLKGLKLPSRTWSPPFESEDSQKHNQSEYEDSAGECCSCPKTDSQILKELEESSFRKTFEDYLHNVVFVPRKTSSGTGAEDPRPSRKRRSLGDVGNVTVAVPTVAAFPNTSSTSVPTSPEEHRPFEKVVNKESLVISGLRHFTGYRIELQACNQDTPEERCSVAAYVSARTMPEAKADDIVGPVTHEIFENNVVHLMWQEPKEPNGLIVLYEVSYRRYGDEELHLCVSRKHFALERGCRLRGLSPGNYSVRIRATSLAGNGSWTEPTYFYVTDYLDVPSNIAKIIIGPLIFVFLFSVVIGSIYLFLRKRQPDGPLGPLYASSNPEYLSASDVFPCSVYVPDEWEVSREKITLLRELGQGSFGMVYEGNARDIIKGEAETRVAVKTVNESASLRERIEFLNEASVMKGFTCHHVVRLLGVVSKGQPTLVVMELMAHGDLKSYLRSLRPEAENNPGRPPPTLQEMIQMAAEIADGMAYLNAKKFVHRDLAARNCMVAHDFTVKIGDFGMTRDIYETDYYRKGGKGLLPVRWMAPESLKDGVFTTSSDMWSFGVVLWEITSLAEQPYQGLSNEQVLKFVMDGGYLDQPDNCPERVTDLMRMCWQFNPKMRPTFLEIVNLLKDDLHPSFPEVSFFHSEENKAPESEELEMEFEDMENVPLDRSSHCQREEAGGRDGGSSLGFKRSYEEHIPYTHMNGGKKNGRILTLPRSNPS
UniProt Q03135: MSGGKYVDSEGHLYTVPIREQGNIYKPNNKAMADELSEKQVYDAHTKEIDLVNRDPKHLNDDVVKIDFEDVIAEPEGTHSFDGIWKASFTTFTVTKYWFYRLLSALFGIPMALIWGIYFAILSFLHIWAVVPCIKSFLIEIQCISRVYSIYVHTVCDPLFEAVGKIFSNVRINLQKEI
UniProt Q9ULV4: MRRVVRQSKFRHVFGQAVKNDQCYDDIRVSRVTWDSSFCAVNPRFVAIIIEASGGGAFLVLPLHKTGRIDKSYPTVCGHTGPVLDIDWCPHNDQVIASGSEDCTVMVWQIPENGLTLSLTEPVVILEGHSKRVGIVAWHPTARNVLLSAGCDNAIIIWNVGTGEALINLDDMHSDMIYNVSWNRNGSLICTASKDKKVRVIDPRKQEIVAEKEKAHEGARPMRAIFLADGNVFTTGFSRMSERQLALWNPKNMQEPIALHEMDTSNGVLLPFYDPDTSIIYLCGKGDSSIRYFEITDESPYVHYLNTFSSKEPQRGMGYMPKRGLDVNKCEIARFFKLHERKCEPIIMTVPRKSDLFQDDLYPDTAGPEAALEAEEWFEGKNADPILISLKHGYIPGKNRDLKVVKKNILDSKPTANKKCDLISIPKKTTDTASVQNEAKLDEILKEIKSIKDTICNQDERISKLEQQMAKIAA
UniProt O14980: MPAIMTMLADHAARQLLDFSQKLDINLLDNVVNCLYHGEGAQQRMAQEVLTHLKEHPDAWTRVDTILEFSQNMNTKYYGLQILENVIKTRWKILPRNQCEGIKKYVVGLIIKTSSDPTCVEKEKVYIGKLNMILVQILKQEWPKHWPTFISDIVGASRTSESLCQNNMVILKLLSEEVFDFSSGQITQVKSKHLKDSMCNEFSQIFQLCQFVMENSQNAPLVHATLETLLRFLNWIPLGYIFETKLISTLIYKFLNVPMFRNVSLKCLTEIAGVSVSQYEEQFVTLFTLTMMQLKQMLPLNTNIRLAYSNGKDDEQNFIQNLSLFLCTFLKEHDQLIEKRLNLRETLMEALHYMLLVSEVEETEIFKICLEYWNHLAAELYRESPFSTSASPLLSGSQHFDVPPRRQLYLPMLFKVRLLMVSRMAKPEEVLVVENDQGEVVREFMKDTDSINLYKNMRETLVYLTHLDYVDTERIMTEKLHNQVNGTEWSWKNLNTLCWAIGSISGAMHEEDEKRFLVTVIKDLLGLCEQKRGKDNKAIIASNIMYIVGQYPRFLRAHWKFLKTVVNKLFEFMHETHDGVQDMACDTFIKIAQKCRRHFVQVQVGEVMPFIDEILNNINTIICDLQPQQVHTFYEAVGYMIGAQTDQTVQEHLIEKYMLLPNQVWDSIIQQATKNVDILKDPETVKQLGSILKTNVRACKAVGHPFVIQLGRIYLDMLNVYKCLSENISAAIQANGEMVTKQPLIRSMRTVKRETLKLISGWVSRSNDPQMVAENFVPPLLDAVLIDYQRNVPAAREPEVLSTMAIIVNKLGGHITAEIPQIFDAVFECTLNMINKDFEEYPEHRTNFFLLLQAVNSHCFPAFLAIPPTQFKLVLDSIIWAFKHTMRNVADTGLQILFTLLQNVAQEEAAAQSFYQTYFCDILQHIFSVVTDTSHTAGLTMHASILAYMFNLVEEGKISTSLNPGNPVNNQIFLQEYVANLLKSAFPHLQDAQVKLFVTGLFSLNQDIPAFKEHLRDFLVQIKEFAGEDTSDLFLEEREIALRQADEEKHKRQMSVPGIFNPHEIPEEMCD
UniProt Q96RL7: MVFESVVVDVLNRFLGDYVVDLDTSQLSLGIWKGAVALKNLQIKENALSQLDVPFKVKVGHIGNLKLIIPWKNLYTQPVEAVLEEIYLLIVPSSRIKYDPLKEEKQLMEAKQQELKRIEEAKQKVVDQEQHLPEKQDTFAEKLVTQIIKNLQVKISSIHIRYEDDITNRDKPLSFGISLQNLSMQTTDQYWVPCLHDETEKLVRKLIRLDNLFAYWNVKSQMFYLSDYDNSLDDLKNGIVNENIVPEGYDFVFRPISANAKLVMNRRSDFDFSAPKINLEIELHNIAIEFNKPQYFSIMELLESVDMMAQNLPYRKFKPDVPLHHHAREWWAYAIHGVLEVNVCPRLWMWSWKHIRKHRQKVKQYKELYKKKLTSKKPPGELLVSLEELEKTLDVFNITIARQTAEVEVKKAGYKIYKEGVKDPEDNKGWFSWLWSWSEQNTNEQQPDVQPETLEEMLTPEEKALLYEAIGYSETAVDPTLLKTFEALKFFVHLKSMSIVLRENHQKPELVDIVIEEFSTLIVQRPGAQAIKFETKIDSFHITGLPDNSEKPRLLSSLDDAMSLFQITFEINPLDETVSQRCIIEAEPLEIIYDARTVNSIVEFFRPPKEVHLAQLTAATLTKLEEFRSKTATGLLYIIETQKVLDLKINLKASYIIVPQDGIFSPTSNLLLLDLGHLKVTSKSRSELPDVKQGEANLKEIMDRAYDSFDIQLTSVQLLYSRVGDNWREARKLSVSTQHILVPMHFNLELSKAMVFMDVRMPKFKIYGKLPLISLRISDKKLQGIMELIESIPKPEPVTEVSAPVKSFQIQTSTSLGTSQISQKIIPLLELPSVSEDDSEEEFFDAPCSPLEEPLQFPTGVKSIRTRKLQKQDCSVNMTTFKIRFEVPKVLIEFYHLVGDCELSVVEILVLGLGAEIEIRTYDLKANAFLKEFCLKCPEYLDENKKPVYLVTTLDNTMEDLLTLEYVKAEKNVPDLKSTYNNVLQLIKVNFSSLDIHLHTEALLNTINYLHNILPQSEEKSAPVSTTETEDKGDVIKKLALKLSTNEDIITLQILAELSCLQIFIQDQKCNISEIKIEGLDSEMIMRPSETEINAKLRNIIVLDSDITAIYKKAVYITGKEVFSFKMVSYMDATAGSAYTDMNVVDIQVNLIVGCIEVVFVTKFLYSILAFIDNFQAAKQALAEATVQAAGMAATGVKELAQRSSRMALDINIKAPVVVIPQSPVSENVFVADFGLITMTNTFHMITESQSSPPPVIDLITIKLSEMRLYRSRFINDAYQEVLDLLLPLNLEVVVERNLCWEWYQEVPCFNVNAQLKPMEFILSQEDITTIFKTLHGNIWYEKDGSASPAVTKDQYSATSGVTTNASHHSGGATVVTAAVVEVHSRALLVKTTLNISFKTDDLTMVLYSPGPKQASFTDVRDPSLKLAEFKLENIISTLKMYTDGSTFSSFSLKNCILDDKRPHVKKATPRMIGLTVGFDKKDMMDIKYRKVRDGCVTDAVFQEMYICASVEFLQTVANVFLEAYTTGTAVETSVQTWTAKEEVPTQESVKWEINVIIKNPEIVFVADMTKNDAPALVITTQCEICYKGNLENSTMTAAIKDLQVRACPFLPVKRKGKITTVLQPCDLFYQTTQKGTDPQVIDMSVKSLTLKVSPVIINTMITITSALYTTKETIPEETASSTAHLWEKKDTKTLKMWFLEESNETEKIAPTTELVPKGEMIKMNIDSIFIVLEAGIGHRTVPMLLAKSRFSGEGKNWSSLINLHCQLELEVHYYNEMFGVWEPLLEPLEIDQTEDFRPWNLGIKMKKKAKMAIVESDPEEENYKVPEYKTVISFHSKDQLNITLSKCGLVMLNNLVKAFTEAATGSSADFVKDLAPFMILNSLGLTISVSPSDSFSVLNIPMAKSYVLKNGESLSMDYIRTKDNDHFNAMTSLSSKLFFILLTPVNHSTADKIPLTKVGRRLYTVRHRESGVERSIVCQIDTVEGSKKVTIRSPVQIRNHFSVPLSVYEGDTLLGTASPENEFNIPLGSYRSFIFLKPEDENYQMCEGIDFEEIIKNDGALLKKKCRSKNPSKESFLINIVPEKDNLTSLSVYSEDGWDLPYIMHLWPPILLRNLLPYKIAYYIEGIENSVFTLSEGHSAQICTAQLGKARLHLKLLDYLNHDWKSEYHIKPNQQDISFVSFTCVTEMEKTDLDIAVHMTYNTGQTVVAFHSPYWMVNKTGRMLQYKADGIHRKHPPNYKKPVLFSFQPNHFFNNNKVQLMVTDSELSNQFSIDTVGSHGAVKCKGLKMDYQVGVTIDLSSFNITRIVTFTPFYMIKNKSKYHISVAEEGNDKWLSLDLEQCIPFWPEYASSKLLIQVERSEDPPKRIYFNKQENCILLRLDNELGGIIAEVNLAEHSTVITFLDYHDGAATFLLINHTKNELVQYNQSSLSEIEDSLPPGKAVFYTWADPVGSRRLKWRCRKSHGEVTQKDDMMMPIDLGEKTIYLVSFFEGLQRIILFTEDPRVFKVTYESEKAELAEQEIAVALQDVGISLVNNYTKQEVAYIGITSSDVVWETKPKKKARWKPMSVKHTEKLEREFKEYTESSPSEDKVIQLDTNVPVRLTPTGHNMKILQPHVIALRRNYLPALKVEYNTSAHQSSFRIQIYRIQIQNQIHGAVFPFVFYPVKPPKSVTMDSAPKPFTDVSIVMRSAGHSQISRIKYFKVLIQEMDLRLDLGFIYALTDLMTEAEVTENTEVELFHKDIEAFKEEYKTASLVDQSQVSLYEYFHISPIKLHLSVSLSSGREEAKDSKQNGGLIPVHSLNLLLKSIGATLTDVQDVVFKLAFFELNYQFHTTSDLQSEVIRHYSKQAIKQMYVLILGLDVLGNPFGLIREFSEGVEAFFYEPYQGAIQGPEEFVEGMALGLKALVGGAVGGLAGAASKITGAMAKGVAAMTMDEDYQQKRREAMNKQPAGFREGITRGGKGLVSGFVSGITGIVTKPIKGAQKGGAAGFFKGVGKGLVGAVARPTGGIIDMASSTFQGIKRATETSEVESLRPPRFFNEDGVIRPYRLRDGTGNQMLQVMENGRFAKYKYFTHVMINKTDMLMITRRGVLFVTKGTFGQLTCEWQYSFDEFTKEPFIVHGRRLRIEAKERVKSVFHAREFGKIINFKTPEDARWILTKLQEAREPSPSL
UniProt O95292: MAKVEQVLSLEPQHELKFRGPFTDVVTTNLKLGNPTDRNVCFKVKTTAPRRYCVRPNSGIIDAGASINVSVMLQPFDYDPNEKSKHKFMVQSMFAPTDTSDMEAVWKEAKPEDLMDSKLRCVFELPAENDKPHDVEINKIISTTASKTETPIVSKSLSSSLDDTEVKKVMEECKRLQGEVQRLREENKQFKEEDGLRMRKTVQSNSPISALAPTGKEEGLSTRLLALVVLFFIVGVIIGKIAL

B1: doublecortin domain-containing protein 2 (DCDC2) (protein, UniProt Q9UHG0 1-476)
chain: MSGSSARSSHLSQPVVKSVLVYRNGDPFYAGRRVVIHEKKVSSFEVFLKEVTGGVQAPFGAVRNIYTPRTGHRIRKLDQIQSGGNYVAGGQEAFKKLNYLDIGEIKKRPMEVVNTEVKPVIHSRINVSARFRKPLQEPCTIFLIANGDLINPASRLLIPRKTLNQWDHVLQMVTEKITLRSGAVHRLYTLEGKLVESGAELENGQFYVAVGRDKFKKLPYSELLFDKSTMRRPFGQKASSLPPIVGSRKSKGSGNDRHSKSTVGSSDNSSPQPLKRKGKKEDVNSEKLTKLKQNVKLKNSQETIPNSDEGIFKAGAERSETRGAAEVQEDEDTQVEVPVDQRPAEIVDEEEDGEKANKDAEQKEDFSGMNGDLEEEGGREATDAPEQVEEILDHSEQQARPARVNGGTDEENGEELQQVNNELQLVLDKERKSQGAGSGQDEADVDPQRPPRPEVKITSPEENENNQQNKDYAAVA
B2: PTPN1 (enzyme, UniProt P18031 1-435)
chain: MEMEKEFEQIDKSGSWAAIYQDIRHEASDFPCRVAKLPKNKNRNRYRDVSPFDHSRIKLHQEDNDYINASLIKMEEAQRSYILTQGPLPNTCGHFWEMVWEQKSRGVVMLNRVMEKGSLKCAQYWPQKEEKEMIFEDTNLKLTLISEDIKSYYTVRQLELENLTTQETREILHFHYTTWPDFGVPESPASFLNFLFKVRESGSLSPEHGPVVVHCSAGIGRSGTFCLADTCLLLMDKRKDPSSVDIKKVLLEMRKFRMGLIQTADQLRFSYLAVIEGAKFIMGDSSVQDQWKELSHEDLEPPPEHIPPPPRPPKRILEPHNGKCREFFPNHQWVKEETQEDKDCPIKEEKGSPLNAAPYGIESMSQDTEVRSRVVGGSLRGAQAASPAKGEPSLPEKDEDHALSYWKPFLVNMCVATVLTAGAYLCYRFLFNSNT

These molecules were tested against human insulin receptor (INSR) overexpressed in immortalised human podocytes (hWT-IR) (human) (UniProt P06213) (assay: affinity purification with mass spectrometry; INSR precipitated (anti-INSR beta CT-1 on protein G Dynabeads) from hWT-IR human podocyte lysate at 0, 2, 7 and 15 minutes of 100 nM insulin; in-gel digestion, label-free LC-MS/MS).
In the case of CAV1 (from UniProt Q03135 1-178), the binding is reported as “binds”. Coronin-1C (from UniProt Q9ULV4 1-474) was tested, and the binding was “binds”. Exportin-1 (from UniProt O14980 1-1071) was tested, and the binding was “binds”. With MTCL1 (from UniProt Q9Y4B5 1-1905) the binding was “binds”. In the case of VPS13A (from UniProt Q96RL7 1-3174), the binding is reported as “binds”. In the case of “Vesicle-associated membrane protein-associated protein B (from UniProt O95292 1-243)”, the binding is reported as “binds”.

Target: human insulin receptor (INSR) overexpressed in immortalised human podocytes (hWT-IR) (human) (UniProt P06213)
Assay: as above
Remark: another data set of the same source
In the case of B1, the binding is reported as “binds”. B2 was tested, and the binding was “binds”.

Results are given in words; binding and its absence hold for the method and conditions named. In cells and extracts the contact can be indirect. A yes stands for co-enrichment or nearness to the bait. Other partners may have been found.
